Strings that start with PEPTIDE1 are HELM notation: dots part the residues, brackets hold end groups and non-standard residues.

This data set can be described thus: general procedure: Boc solid-phase peptide synthesis; MBHA resin (4-methylbenzhydrylamine resin, Bachem California or Novabiochem, ca. 0.5 meq./g). Particulars: whole synthesis, scale of the general procedure 3.1 g of MBHA resin (0.49 meq./g).

Consider “PEPTIDE1{[Dat].A.D.A.I.F.T.N.S.Y.[hArg].[hArg].V.L.A.Q.L.S.A.[hArg].[hArg].L.L.Q.D.I.[Nle].D.[hArg].[am]}$$$$V2.0”, for which the “crude HPLC purity” value stood at 50% and the “final HPLC purity” value was 92.3%.

(Values after patent US7928063B2 (Instytut Farmaceutyczny, priority 2001, dated 2011).)
